This is an account of results in paper PMC7604311, “Caprine Bactenecins as Promising Tools for Developing New Antimicrobial and Antitumor Drugs” (Frontiers in Cellular and Infection Microbiology, 2020).

For this data set, the system named is human PBMC vs bacteria. Briefly: Selectivity index SIh/b (human cells vs bacteria).

The structures appear in SMILES notation. Peptide text beside a SMILES is read from it.

As to `CC[C@H](C)[C@H](NC(=O)[C@H](CCCNC(=N)N)NC(=O)[C@@H](NC(=O)[C@H](Cc1ccccc1)NC(=O)[C@@H]1CCCN1C(=O)[C@@H]1CCCN1C(=O)[C@@H]1CCCN1C(=O)[C@H](Cc1c[nH]cn1)NC(=O)[C@@H](NC(=O)[C@H](CCCNC(=N)N)NC(=O)[C@H](CCCNC(=N)N)NC(=O)[C@H](Cc1ccccc1)NC(=O)[C@@H]1CCCN1C(=O)[C@H](CC(C)C)NC(=O)[C@H](CCCNC(=N)N)NC(=O)[C@H](Cc1ccccc1)NC(=O)[C@@H](N)CCCNC(=N)N)[C@@H](C)CC)C(C)C)C(=O)N[C@@H](Cc1c[nH]cn1)C(=O)N1CCC[C@H]1C(=O)N1CCC[C@H]1C(=O)N1CCC[C@H]1C(=O)N[C@@H](Cc1ccccc1)C(=O)N[C@@H](Cc1ccc(O)cc1)C(=O)N[C@@H](CCCNC(=N)N)C(=O)N[C@@H](CCCNC(=N)N)C(=O)N[C@@H](Cc1ccccc1)C(=O)N[C@@H](CC(C)C)C(=O)O` [ChBac3.4-1-COOH (rec)] (H-RFRLPFRRIHPPPFVRIHPPPFYRRFL-OH; N-terminus assumed), the “SIh/b IC50PBMC/GMIC” value (IC50 toward human PBMC divided by GMIC) is 8.1. Further, the “SIh/b ratio to ChBac3.4” value (ratio of SIh/b of the peptide to SIh/b of native ChBac3.4-NH2 (square brackets)) is recorded as 2.0.
